Here are results for 1 substance from paper PMC10111829.

Protein sequences, listed by entry. Tags and fused reporters are not part of them.
UniProt P35579: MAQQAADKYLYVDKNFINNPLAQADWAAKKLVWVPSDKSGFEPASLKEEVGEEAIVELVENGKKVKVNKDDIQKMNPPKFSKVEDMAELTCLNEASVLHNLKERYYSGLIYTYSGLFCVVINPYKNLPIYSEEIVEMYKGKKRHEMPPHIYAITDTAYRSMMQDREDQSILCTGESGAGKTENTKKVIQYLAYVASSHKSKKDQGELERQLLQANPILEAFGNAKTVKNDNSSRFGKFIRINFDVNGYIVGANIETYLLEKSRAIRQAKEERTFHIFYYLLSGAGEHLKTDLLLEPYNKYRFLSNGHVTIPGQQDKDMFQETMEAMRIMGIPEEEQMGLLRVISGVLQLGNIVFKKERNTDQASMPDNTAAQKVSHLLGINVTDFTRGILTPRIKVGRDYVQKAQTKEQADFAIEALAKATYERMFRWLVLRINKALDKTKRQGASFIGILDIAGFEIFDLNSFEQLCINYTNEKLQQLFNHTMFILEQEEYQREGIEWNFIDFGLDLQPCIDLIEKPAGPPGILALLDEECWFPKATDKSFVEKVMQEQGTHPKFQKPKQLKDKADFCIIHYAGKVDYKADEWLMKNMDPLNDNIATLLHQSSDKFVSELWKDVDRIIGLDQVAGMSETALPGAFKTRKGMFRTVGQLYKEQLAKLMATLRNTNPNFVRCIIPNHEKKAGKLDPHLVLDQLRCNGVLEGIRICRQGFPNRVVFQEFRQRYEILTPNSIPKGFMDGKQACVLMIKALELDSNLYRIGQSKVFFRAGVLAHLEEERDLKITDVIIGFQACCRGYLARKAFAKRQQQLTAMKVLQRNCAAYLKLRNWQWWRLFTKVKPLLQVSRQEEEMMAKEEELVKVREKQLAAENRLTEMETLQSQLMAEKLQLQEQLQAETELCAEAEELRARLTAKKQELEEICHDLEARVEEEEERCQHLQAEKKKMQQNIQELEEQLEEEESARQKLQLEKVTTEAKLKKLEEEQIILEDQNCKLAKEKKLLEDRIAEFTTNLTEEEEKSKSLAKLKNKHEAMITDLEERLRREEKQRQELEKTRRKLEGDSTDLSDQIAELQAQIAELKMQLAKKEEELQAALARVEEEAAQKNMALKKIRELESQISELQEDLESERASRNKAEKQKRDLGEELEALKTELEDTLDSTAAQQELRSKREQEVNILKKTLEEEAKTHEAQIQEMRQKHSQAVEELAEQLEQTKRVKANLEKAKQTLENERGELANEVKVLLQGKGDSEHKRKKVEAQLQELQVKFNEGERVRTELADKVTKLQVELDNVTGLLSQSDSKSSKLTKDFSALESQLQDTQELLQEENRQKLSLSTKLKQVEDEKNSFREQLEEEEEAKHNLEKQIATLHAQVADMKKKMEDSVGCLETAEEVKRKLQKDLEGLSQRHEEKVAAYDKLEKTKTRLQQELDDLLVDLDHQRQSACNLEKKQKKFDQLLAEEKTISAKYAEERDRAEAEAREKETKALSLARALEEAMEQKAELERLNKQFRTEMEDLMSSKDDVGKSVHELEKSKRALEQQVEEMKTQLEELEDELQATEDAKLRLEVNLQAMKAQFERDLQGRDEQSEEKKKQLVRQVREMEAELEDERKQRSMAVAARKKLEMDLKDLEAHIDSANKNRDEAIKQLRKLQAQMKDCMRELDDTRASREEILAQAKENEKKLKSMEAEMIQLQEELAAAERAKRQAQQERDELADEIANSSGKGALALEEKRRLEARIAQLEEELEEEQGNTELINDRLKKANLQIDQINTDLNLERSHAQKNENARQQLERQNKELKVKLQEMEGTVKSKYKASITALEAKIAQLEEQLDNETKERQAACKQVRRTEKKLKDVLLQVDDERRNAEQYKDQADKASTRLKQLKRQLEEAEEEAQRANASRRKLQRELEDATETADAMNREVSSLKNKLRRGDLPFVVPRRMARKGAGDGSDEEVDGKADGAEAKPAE

Results are given in words; binding and its absence hold for the method and conditions named. In cells and extracts the contact can be indirect. Some results given as binding are weak or reduced against the parent protein; the word gives no strength.

This assay addresses T1, TM4SF1 (human (endogenous in HCC cells)) (UniProt P30408).
T1 sequence: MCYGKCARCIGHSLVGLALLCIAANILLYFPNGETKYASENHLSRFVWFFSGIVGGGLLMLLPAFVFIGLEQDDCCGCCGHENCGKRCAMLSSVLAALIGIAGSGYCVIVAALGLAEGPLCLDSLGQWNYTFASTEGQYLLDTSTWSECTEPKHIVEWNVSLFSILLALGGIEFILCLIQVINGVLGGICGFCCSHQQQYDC
Kind of assay: co-IP; HCC cells lysed with mild lysate; primary antibody against the decoy protein (TM4SF1) overnight at 4 °C, protein A agarose beads 2-4 h at 4 °C, 3-4 washes with lysis buffer, western blot. On the technique in general: In western blotting, separated proteins are transferred to a membrane and probed.

Take MYH9 (from UniProt P35579 1-1960): the binding entry is listed as “binds”.
